Results reported in publication PMC11884936, “MDC1 mediates Pellino recruitment to sites of DNA double-strand breaks” (Life Science Alliance, 2025).
These are yes or no findings as the source states them, for the method shown. In cells and extracts the contact can be indirect. Some results given as binding are weak or reduced against the parent protein; the word gives no strength.

Protein sequences, listed by entry. Tags and fused reporters are not part of them.
UniProt Q14676: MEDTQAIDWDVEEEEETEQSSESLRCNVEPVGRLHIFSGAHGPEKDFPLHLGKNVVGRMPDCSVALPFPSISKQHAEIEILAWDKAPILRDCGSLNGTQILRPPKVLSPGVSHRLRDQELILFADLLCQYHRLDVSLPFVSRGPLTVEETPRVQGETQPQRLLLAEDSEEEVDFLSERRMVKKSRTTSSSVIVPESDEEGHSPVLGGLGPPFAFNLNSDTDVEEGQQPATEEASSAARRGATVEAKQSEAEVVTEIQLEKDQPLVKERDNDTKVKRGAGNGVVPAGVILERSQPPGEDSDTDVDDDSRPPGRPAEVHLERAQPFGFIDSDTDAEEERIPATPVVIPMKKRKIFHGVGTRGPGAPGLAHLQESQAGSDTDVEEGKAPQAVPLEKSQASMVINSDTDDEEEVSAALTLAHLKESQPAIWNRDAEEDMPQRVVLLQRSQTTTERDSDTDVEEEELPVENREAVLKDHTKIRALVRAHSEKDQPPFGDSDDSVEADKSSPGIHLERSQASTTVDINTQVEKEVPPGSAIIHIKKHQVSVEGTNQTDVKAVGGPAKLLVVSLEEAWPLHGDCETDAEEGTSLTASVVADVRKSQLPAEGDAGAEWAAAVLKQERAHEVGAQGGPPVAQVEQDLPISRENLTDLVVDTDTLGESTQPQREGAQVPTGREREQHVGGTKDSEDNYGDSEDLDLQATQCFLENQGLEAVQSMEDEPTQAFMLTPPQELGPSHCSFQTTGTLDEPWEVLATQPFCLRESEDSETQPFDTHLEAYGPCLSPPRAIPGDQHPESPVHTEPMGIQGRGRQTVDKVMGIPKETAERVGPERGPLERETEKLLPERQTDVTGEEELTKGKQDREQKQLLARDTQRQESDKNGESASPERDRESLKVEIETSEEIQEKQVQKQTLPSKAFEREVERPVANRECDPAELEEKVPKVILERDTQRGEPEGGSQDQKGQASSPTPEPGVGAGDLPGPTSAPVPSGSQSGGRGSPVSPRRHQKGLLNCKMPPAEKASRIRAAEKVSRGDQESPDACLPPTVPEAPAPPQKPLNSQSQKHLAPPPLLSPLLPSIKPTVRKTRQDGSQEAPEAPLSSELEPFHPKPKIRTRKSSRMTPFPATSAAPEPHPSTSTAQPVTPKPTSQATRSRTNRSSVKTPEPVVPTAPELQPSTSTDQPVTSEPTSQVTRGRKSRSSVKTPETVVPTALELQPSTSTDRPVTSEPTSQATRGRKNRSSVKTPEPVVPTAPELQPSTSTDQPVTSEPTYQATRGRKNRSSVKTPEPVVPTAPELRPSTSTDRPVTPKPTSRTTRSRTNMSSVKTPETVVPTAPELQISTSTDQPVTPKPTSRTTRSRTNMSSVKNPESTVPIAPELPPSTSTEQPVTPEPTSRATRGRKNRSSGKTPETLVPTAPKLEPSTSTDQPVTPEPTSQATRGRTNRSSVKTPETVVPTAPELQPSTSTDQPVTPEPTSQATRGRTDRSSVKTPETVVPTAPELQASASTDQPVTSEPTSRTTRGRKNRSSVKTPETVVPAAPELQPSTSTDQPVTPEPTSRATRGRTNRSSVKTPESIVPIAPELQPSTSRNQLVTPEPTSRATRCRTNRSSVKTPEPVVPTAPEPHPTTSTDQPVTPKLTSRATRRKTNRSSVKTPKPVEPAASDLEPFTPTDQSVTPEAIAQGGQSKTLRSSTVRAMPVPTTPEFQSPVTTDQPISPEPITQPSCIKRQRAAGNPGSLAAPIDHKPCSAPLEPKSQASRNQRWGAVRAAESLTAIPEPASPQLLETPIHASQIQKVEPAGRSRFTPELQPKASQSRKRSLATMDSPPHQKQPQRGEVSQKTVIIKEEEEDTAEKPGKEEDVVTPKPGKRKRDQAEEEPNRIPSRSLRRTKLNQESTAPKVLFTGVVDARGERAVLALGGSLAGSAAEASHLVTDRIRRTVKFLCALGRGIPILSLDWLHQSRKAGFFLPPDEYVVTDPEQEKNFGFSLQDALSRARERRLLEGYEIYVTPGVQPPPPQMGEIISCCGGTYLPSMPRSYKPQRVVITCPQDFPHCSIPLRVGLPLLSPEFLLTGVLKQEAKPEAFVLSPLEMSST

Biological target: T1, H2AX-[p]S139 biotinylated phosphopeptide (Biotin-SGS-…[p]SQEY-OH)
T1 sequence (peptide, biotin on the N-terminus; phosphoserine at S139; free C-terminus (-OH)): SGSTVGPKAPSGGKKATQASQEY
Experiment: pull-down; biotinylated peptide on streptavidin Dynabeads, incubated with HeLa nuclear extract 4 h at 4°C; SDS-PAGE and Western blot; only the target purified

binding: binds
Substance: MDC1 (endogenous, HeLa nuclear extract) (from UniProt Q14676 1-2089)
